Data on eight substances can be found in patent publication US20250082774A1, “PEPTIDE LINKERS COMPRISING TWO OR MORE PAYLOADS” (ARARIS BIOTECH AG, priority 2022, published 2025).

What all share (type): biochemical
The subject of data set [1] is native, fully glycosylated Trastuzumab antibody. The data set is described as follows: MTG conjugation of MMAE linker-payloads to Trastuzumab (Example 1). The following applies: MTG 5 U/mg, 5 molar equivalents linker-payload, Tris 50 mM pH 7.6, 24 hours 37° C.; LCMS.
The subject of data set [2] is native, fully glycosylated Polatuzumab. The data set is described as follows: MTG conjugation of MMAE linker-payloads to Polatuzumab (Example 2). The following applies: MTG 6-7.5 U/mg, 5 molar equivalents, Tris 50 mM pH 7.6, 24 hours 37° C.; LCMS.
Data set [3] deals with native, fully glycosylated Enfortumab. The experiment in a line: MTG conjugation of MMAE linker-payloads to Enfortumab (Example 2). The following applies: MTG 6-7.5 U/mg, 5 molar equivalents, Tris 50 mM pH 7.6, 24 hours 37° C.; LCMS.
Data set [4] has as its system native, glycosylated Trastuzumab antibody. The experiment in a line: MTG conjugation to Trastuzumab, BisTris pH 7.5, 22 h (Examples 6 to 9). The following applies: MTG 8 U/mg, 5 molar equivalents, BisTris 50 mM pH 7.5, 22 hours 37° C., LCMS.
Data set [5] shares this test system. The data set is described as follows: MTG conjugation to Trastuzumab at varying linker-payload molar equivalents (Example 10). The following applies: 3.5 mg/ml antibody, MTG 5 U/mg, Tris 50 mM pH 7.6, 24 hours 37° C.
Data set [6] shares this test system. The data set is described as follows: MTG conjugation of Exatecan linker-payloads to Trastuzumab (Example 3). The following applies: MTG 10 U/mg, 7.5-12.5 molar equivalents, BisTris pH 6.6, 24 hours 37° C.; LCMS or RPLC.
The mark [7] stands for this setting: 2 molar equivalents vs Trastuzumab.
Where [8] appears, read: 5 molar equivalents vs Trastuzumab.
Setting [9] is: 10 molar equivalents vs Trastuzumab.
The mark [10] stands for this setting: 20 molar equivalents vs Trastuzumab.
The mark [11] stands for this setting: 40 molar equivalents vs Trastuzumab.
The mark [12] stands for this setting: 80 molar equivalents vs Trastuzumab.

As for “RKAA-PABC-(MMAE)2: peptide linker (SEQ ID NO: 1) with two MMAE payloads; structure in FIG. 1 (acetyl, PABC, two MMAE payloads; Linker Sequence 1)”, the “Conjugation efficiency (%) to Trastuzumab” value in data set [1] worked out at 90%; in data set [4] (Example 9, peptide vs amino-PEG linker, DAR 4) it was 95%. Further, the “Conjugation efficiency (%) to Polatuzumab” value in data set [2] is given as 91%. Moreover, in data set [3], the “Conjugation efficiency (%) to Enfortumab” value is 90%. Further, the “CE (%)” value amounted to 69% in data set [5] (setting [7]); 97% in data set [5] (setting [8]); 100% in data set [5] (setting [9]); 99% in data set [5] (setting [10]); 91% in data set [5] (setting [11]); 68% in data set [5] (setting [12]).

On to “RKN(PABC-MMAE)A-PABC-MMAE: peptide linker (SEQ ID NO: 83) with two MMAE payloads; structure in FIG. 43 (RKNA; PABC, two MMAE payloads; Linker sequence 31)”, for which the “CE (%)” value in data set [5] (setting [7]) came out at 50%; in data set [5] (setting [8]), 82%; in data set [5] (setting [9]), 84%; in data set [5] (setting [10]), 56%; in data set [5] (setting [11]) it was 19%; in data set [5] (setting [12]) it was 2%.

As for “RKAASGSG-PABC-(Exa)2: peptide linker with two Exatecan payloads; structure in FIG. 9 (N-acetyl; PABC, two Exatecan payloads)”, the “Conjugation efficiency (%) to Trastuzumab” value in data set [6] came out at 92%.

Take “Exa-PABC-AA-C2-RKAA-PABC-Exa: peptide linker with Exatecan at N- and C-terminal end; structure in FIG. 14 (Exatecan-PABC at both termini; Linker Sequence 1)”: in data set [6], the “Conjugation efficiency (%) to Trastuzumab” value is given as 88%.

For “E(A-PABC-MMAE)-ARKAA-PABC-(MMAE)2: peptide linker (SEQ ID NO: 11) with three MMAE payloads; structure in FIG. 19 (EARKAA; acetyl, PABC, three MMAE payloads; Linker Sequence 11)”, in data set [4] (DAR 6 or DAR 8 ADCs), the “Conjugation efficiency (%) to rastuzumab” value is on record as 99%.

Turning to “RKAAAAAA PABC-(Exa)2: peptide linker with two Exatecan payloads; structure in FIG. 8 (PABC, two Exatecan payloads)”, in data set [6], the “Conjugation efficiency (%) to Trastuzumab” value came to 95%.

With “MMAE-PABC-AA-C2-RKAA-PABC-MMAE: peptide linker with MMAE at N- and C-terminal end; structure in FIG. 3 (MMAE-PABC at both termini; Linker Sequence 1)”, in data set [1], the “Conjugation efficiency (%) to Trastuzumab” value was 95%. In data set [2], the “Conjugation efficiency (%) to Polatuzumab” value is reported as 96%. Also, the “Conjugation efficiency (%) to Enfortumab” value in data set [3] was found to be 96%.

With “RKAA-PABC-PABC-(MMAE)2: peptide linker (SEQ ID NO: 1) with two MMAE payloads; structure in FIG. 2 (acetyl, PABC-PABC, two MMAE payloads; Linker Sequence 1)”, the “Conjugation efficiency (%) to Trastuzumab” value in data set [1] stood at 90%. In addition, the “Conjugation efficiency (%) to Polatuzumab” value in data set [2] was found to be 89%. Also, the “Conjugation efficiency (%) to Enfortumab” value in data set [3] was determined as 92%.
